Series [1] addresses T1, L-selectin (LS-Rg) (Homo sapiens) (UniProt P14151).
T1 sequence: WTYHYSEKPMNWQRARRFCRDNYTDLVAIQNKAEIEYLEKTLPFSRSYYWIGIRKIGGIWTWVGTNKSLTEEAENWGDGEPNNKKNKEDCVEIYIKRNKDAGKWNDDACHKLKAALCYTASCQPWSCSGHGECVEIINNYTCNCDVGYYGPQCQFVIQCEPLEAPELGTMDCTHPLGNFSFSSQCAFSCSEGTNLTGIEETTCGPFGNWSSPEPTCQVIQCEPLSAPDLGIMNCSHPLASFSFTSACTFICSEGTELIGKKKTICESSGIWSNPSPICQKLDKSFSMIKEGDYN
In words: filter binding. Particulars: purified recombinant protein, protein details: human IgG2 Fc fusion.

In series [2] the target is T2, E-selectin (ES-Rg) (Homo sapiens) (UniProt P16581).
T2 sequence: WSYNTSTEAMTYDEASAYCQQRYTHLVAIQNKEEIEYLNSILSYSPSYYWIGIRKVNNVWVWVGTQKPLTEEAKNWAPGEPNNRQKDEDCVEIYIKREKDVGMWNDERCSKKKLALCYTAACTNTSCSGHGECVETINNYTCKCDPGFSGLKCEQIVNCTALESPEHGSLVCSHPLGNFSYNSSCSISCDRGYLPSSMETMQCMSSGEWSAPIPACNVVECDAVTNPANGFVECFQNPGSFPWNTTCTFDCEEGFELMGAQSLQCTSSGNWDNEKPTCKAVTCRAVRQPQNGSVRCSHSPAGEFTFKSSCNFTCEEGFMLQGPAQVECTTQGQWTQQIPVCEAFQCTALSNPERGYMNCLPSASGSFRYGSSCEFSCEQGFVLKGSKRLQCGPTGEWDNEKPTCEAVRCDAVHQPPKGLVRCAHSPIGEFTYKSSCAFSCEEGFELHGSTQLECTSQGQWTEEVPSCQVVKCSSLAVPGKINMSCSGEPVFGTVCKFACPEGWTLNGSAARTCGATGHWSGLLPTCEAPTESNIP
In words: filter binding. Particulars: 2'-F C and U, purified recombinant protein, protein details: human IgG1 Fc fusion.

Series [3] addresses T3, P-selectin (PS-Rg) (Homo sapiens) (UniProt P16109).
T3 sequence: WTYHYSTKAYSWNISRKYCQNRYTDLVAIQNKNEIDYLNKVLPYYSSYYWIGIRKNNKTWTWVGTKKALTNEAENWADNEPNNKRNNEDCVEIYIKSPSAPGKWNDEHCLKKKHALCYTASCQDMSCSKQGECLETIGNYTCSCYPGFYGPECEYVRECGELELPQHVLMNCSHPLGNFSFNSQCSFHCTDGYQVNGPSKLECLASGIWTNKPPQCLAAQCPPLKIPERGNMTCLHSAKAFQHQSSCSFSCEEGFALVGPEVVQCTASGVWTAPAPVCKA
Description: filter binding. Particulars: 2'-NH2 C and U; probably nM; 37 C; purified recombinant protein; protein details: human IgG Fc fusion.

For series [4], the target named is P-selectin on activated platelets (Homo sapiens) (UniProt P16109). In words: flow cytometry. Particulars: 2'-NH2 C and U; blocked by G1 antibody, unlabeled PA350, EDTA; protein on the cell surface; label: FITC; variant of PA350. On the technique in general: Flow cytometry measures light scatter and fluorescence of single cells or particles in a stream.
Series [5] deals with T4, L-selectin on PBMC / lymphocytes (Homo sapiens) (UniProt P14151).
T4 sequence: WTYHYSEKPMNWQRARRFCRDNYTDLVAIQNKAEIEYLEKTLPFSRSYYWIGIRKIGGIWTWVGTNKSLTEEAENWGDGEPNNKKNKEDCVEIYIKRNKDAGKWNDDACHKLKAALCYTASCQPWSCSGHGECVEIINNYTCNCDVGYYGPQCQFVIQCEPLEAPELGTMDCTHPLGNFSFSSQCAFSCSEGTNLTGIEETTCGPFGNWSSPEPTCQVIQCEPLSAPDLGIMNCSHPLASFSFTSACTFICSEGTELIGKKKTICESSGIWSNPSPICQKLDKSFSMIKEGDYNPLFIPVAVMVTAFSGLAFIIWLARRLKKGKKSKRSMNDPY
In words: activity in cells. Particulars: protein on the cell surface, single-stranded DNA, dose not given here.

For some assays here: Where cells or extracts were used, other partners may take part. For some assays here: The exact form of at least one protein or probe is not confirmed.

What is called Kd is a measure of binding affinity in units of concentration.

Take “CUCAACGAACCACGGGGAAAUCCACCAGUAACACGCGAG [PF398s1]”: the Kd in series [1] (2'-F C and U, variant of PF398) was > 3000 nM; in series [2] (variant of PF398) it was > 3000 nM.

Consider “CUCAACGAAUCAGUAAACAUAACACCAUGAAACAUAAAUAGCACGCGAG [PF373s1]”, for which the Kd in series [1] (2'-F C and U, variant of PF373) was > 3000 nM; in series [2] (variant of PF373), > 3000 nM.

“CUCAACGAGCCAGGAACAUCGACGUCAGCAAACGCGAG [PF377M1]”: the equilibrium dissociation constant (Kd) in series [2] (2'-OMe G7 G9 G14 G21 A8 A15 A18 A22 A27 A31, variant of PF377s1) was > 3000 nM.

As for “CUCAACGAGCCAGGAACAUCGACGUCAGCAAACGCGAG [PF377M3]”, the equilibrium dissociation constant (Kd) in series [2] (2'-OMe G 7,9,14,21,36 and A 8,15,18,22,27,31,37 as listed, variant of …) was > 3000 nM.

For the sequence “CUCAACGAGCCAGGAACAUCGACGUCAGCAAACGCGAG [PF377M5]”, the Kd in series [2] (2'-OMe G 7,9,14 and A 8,15,18,27,31, variant of PF377s1) is > 3000 nM.

Regarding “CUCAACGAGCCAGGAACAUCGACGUCAGCAAACGCGAG [PF377s1B]”, the Kd was > 3000 nM in series [1] (2'-F C and U, biotin, variant of PF377s1); > 3000 nM in series [2] (biotin, variant of PF377s1).

As to “CUCAACGAGCCAGGAACAUCGACGUCAGCAAACGCGAG [PF377s1]”, the Kd in series [1] (2'-F C and U, variant of PF377) is > 3000 nM; in series [2] (variant of PF377), > 3000 nM.

Turning to “CUCAACGAGCCAGGACUACGAUCAGCAAACGCGAG [PF377L1]”, the Kd is > 3000 nM in series [1] (2'-F C and U, variant of PF377s1); > 3000 nM in series [2] (variant of PF377s1).

Regarding “GAAUCCGGAACACGCGAGAAAACAAAUCAACGACCAAUCGAUUCG [PF422s1]”, the Kd is > 3000 nM in series [1] (2'-F C and U, variant of PF422); > 3000 nM in series [2] (variant of PF422).

On to “GGGAGACAAGAAUAAACGCUCAACGAAUCAGUAAACAUAACACCAUGAAACAUAAAUAGCACGCGAGACGUCUUCGACAGGAGGCUCACAACAGGC [PF373]”, for which the dissociation constant (Kd) in series [1] (2'-F C and U) is > 3000 nM; in series [2] it was > 3000 nM.

For the sequence “GGGAGACAAGAAUAAACGCUCAACGAGCCAGGAACAUCGACGUCAGCAAACGCGAGCGCAACCAGUAACACCUUCGACAGGAGGCUCACAACAGGC [PF377]”, the Kd in series [1] (2'-F on all C and U, specificity control, label: 32P) is > 3000 nM.

For “GGGAGACAAGAAUAAACGCUCAAGAUCAGCGGAACUAAGAAAUGGAAGGCUAAGCACCGGGAUCGGGAGAAUUCGACAGGAGGCUCACAACAGGC [PA309]”, the Kd in series [3] was 0.000656 nM.

As to “GGGAGACAAGAAUAAACGCUCAAGCCCCAAACGCAAGUGAGCAUCCGCAACAGGGAAGAAGACAGACGAUUGAUUCGACAGGAGGCUCACAACAGGC [FITC-PA350]”, the binding result in series [4] is “binds”.

“GGGAGACAAGAAUAAACGCUCAAGCCCCAAACGCAAGUGAGCAUCCGCAACAGGGAAGAAGACAGACGAUUGAUUCGACAGGAGGCUCACAACAGGC [PA350]”: the Kd in series [1] (2'-NH2 C and U) was > 3000 nM.

Take “TAGCCATTCACCATGGCCCCTTCCTACGTATGTTCTGCGGGTGGCTTA [LD174T1]”: the “functional effect of the aptamer” value in series [5] (trafficking inhibition similar to NX288, variant of LD174) was “active”.

For “TTAGCCAAGGTAACCAGTACAAGGTGCTAAACGTAATGGCTTCGGCTTACTT [NX288]”, the “functional effect of the aptamer” value in series [5] (5' amino modifier C6 dT with 20 kDa PEG, 3'-3' terminal dT [1 = 5' amino modifier C6 dT with 20 kDa PEG (PEG left out), 52 = 3'-3' terminal dT], inhibits human lymphocyte trafficking to SCID mouse lymph nodes, letters built from the parent sequence and the stated change, variant of LD201T1) was “active”.

The values are drawn from patent US20030059769.
